Results are given in words; binding and its absence hold for the method and conditions named. For some of these results: A result given as binding can be weak or reduced; the word gives no strength.
T1: GST–PPARα fusion protein (purified ligand binding domain of PPARα)
T1 sequence (Q07869 whole entry, species assumed, looked up): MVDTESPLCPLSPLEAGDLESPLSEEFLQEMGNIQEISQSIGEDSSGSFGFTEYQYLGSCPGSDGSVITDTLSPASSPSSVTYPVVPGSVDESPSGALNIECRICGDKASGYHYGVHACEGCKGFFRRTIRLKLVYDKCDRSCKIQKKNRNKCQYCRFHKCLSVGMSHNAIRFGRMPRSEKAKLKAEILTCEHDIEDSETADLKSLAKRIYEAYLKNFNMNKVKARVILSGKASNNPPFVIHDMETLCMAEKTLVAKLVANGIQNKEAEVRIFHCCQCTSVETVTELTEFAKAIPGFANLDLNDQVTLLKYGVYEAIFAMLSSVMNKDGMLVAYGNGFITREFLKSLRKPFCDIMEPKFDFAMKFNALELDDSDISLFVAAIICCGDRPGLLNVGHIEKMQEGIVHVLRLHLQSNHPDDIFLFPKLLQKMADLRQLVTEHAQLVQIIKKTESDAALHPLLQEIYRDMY

B1: TIF2_M3 cofactor peptide (transcriptional intermediary factor 2, motif 3) (peptide)
peptide: SPKKKENALLRYLLDKDDTK
modifications: biotin separated by an aminohexanoic acid spacer at the N terminus
B2: TIF2_M2 cofactor peptide (transcriptional intermediary factor 2, motif 2) (peptide)
peptide: STHGTSLKEKHKILHRLLQDS
modifications: biotin separated by an aminohexanoic acid spacer at the N terminus
B3: RAC3_M1 cofactor peptide (receptor-associated co-activator 3, motif 1) (peptide)
peptide: SKGHKKLLQLLTCSSD
modifications: biotin separated by an aminohexanoic acid spacer at the N terminus
B4: NCoR ID1 cofactor peptide (nuclear receptor co-repressor, interaction domain 1) (peptide)
peptide: HRLITLADHICQIITQDFARNQVSS
modifications: biotin separated by an aminohexanoic acid spacer at the N terminus
B5: SMRT ID1 cofactor peptide (silencing mediator of retinoid and thyroid hormone receptors, interaction domain 1) (peptide)
peptide: HQRVVTLAQHISEVITQDYTRHHP
modifications: biotin separated by an aminohexanoic acid spacer at the N terminus

Legend:
[1] = biological target: T1, GST–PPARα fusion protein (purified ligand binding domain of PPARα); experiment: FRET or BRET; homogeneous TR-FRET, pilot experiment: GST–PPAR ligand binding domain 20 nM (Eu-W1024-labeled anti-GST antibody), biotinylated cofactor peptide 500 nM (allophycocyanine streptavidin), in the presence of 10 μM of each PPAR ligand; 60 min at 37 °C; 50 mM HEPES pH 7.4, 25 mM NaCl, 0.1 mg/mL BSA, 1 mM dithiothreitol; both purified
[2] = biological target: T1, GST–PPARα fusion protein (purified ligand binding domain of PPARα); experiment: FRET or BRET; TR-FRET recruitment/competition assays on PPARα with TIF2_M2 and NCoR2 peptides: aleglitazar alone, RO4899100 alone, and increasing aleglitazar against RO4899100 at 100 nM; both purified
[3] = biological target: GST–PPARγ fusion protein (purified ligand binding domain of PPARγ); experiment: FRET or BRET; homogeneous TR-FRET, pilot experiment: GST–PPAR ligand binding domain 20 nM (Eu-W1024-labeled anti-GST antibody), biotinylated cofactor peptide 500 nM (allophycocyanine streptavidin), in the presence of 10 μM of each PPAR ligand; 60 min at 37 °C; 50 mM HEPES pH 7.4, 25 mM NaCl, 0.1 mg/mL BSA, 1 mM dithiothreitol; both purified

Binder | binding [1] | binding [2] | binding [3]
B1 | binds | – | –
B2 | binds | binds | –
B3 | no binding (tested: 500 nM) | – | no binding (tested: 500 nM)
B4 | no binding (tested: 500 nM) | – | –
B5 | no binding (tested: 500 nM) | – | –

Reference: publication PMC3504387
